Measured values published in ChEMBL document CHEMBL5506042, “Discovery of the Clinical Candidate IDOR-1117-2520: A Potent and Selective Antagonist of CCR6 for Autoimmune Diseases” (J Med Chem, 2024).

Assay: Lipophilicity, LogD of the compound in 1-Octanol/PBS at pH 7.4 by miniaturized shake flask method
Conditions: octanol/water

Work on `CN1CC(C#N)(C(O)(c2ccc(OC(F)(F)F)cc2)c2cccc(Cl)c2)C1` (racemic) yielded a logD of 3.8.
